Test results as given in paper PMC9080189.
Results are given in words; binding and its absence hold for the method and conditions named. Binding seen in cells or lysates may run through a third protein. Some entries that bind do so weakly or less than the wild type.

By UniProt entry, the sequences of proteins in these tests, tags left out. Where a name states a change or a piece, a line headed by the entry shows the natural chain unless it says otherwise.
UniProt P46938: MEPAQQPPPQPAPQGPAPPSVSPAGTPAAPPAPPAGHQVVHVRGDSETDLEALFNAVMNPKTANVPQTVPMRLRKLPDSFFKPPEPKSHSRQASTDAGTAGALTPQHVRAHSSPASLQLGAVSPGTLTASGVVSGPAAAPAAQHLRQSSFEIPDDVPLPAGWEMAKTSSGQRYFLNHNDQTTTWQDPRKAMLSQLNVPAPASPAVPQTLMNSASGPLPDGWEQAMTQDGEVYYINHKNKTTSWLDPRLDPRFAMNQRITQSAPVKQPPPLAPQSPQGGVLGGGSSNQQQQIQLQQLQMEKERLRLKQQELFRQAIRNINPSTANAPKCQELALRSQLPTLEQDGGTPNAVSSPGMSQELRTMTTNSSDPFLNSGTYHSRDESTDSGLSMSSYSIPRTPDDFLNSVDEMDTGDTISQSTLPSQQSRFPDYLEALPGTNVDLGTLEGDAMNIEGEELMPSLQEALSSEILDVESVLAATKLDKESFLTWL
UniProt O54785: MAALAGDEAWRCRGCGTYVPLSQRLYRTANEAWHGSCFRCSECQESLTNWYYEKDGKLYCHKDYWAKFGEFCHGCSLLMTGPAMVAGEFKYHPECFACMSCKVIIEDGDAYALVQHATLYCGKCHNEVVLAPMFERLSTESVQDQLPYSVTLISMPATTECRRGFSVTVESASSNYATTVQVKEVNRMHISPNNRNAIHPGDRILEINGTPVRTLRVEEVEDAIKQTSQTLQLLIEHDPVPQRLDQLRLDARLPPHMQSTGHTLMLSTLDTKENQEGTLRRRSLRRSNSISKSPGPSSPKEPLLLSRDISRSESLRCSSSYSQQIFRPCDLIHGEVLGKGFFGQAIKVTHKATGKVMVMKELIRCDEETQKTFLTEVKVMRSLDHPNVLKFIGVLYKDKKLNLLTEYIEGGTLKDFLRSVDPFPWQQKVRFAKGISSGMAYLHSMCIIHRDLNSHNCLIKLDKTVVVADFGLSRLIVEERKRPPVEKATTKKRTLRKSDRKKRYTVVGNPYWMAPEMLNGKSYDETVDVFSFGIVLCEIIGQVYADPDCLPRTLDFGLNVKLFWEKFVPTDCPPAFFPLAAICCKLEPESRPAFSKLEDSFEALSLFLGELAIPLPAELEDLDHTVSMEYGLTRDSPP

What was measured:
[1] = target: T1, full-length CDX2 (expressed in SH-SY5Y cells) (mouse) (UniProt P43241); test: co-IP; SH-SY5Y cells transfected with full-length CDX2 or ΔCDX2 along with full-length YAP, 48 h; IP with anti-FLAG antibody, blot with anti-YAP
T1 sequence: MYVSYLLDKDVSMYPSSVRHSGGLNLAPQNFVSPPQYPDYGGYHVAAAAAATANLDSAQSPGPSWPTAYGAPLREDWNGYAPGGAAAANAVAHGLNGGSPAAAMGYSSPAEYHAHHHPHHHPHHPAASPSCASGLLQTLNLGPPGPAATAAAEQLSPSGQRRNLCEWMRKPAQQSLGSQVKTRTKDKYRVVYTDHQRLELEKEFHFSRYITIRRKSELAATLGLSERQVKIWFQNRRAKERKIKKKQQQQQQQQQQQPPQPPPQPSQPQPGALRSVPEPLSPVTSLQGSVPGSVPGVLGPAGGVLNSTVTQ

[2] = target: FLAG-tagged full-length YAP (expressed in TSCs) (mouse) (UniProt P46938); test: co-IP; lysates of TSCs transfected with FLAG-tagged full-length YAP or YAP deletion constructs; IP with anti-FLAG antibody, immunoblot with anti-CDX2 (endogenous CDX2); isotype matched antibody as negative control
[3] = target: YAP (Yes-associated protein), endogenous in trophoblast stem cells (mouse (endogenous in TSCs)) (UniProt P46938); test: co-IP; endogenous proteins, TSC lysate (250 μg, overnight at 4 °C); IP with anti-YAP antibody, western blot with anti-CDX2; isotype matched antibody as negative control
[4] = target: LIMK2 (LIM domain kinase 2), endogenous in trophoblast cells (mouse (endogenous in TSCs and differentiated trophoblast cells)) (UniProt O54785); test: co-IP; reverse co-IP, endogenous proteins of trophoblast cells; IP with anti-LIMK2 antibody, western blot with anti-LATS1

In the case of “full-length YAP (expressed in SH-SY5Y cells) (from UniProt P46938-1 1-488)”, the binding [1] is reported as “binds”.

B1: CDX2 (Caudal type homeobox 2), endogenous in trophoblast stem cells (protein, UniProt P43241 1-311)
chain: MYVSYLLDKDVSMYPSSVRHSGGLNLAPQNFVSPPQYPDYGGYHVAAAAAATANLDSAQSPGPSWPTAYGAPLREDWNGYAPGGAAAANAVAHGLNGGSPAAAMGYSSPAEYHAHHHPHHHPHHPAASPSCASGLLQTLNLGPPGPAATAAAEQLSPSGQRRNLCEWMRKPAQQSLGSQVKTRTKDKYRVVYTDHQRLELEKEFHFSRYITIRRKSELAATLGLSERQVKIWFQNRRAKERKIKKKQQQQQQQQQQQPPQPPPQPSQPQPGALRSVPEPLSPVTSLQGSVPGSVPGVLGPAGGVLNSTVTQ
With B1 the binding [2] was “binds” and the binding [3] was “binds”.

B2: LATS1 (Large tumor suppressor kinase 1), endogenous in trophoblast cells (protein, UniProt Q8BYR2 1-1129)
chain: MKRGEKPEGYRQMRPKTFPASNYPGSSRQMLQEIRESLRNLSKPSDASKAEHNLNKMSTEDPRQVRNPPKFGTHHKALQEIRNSLLPFANETSSSRSPSEVNPQMFQDLQAAGFDEDMVIQALQKTNNRSIEAAVEFISKMSYQDPRREQMSAAAARPINATMKPGNVQHSINRKQSWKGSKESLVPQRHGPSLGENVVYRSESPNSQADVGRPLSGSGIAAFAQAHPSNGQRVNPPPPPQVRSVTPPPPPRGQTPPPRGTTPPPPSWEPSSQTKRYSGNMEYVISRISPVPPGAWQEGYPPPPLTTSPMNPPSQAQRAISSVPVGRQPIIMQSTSKFNFTPGRPGVQNGGGQSDFIVHQNVPTGSVTRQPPPPYPLTPANGQSPSALQTGASAAPPSFANGNVPQSMMVPNRNSHNMELYNINVPGLQTAWPQSSSAPAQSSPSGGHEIPTWQPNIPVRSNSFNNPLGSRASHSANSQPSATTVTAITPAPIQQPVKSMRVLKPELQTALAPTHPSWMPQPVQTVQPTPFSEGTASSVPVIPPVAEAPSYQGPPPPYPKHLLHQNPSVPPYESVSKPCKDEQPSLPKEDDSEKSADSGDSGDKEKKQITTSPITVRKNKKDEERRESRIQSYSPQAFKFFMEQHVENVLKSHQQRLHRKKQLENEMMRVGLSQDAQDQMRKMLCQKESNYIRLKRAKMDKSMFVKIKTLGIGAFGEVCLARKVDTKALYATKTLRKKDVLLRNQVAHVKAERDILAEADNEWVVRLYYSFQDKDNLYFVMDYIPGGDMMSLLIRMGIFPENLARFYIAELTCAVESVHKMGFIHRDIKPDNILIDRDGHIKLTDFGLCTGFRWTHDSKYYQSGDHPRQDSMDFSNEWGDPSNCRCGDRLKPLERRAARQHQRCLAHSLVGTPNYIAPEVLLRTGYTQLCDWWSVGVILFEMLVGQPPFLAQTPLETQMKVINWQTSLHIPPQAKLSPEASDLIIKLCRGPEDRLGKNGADEIKAHPFFKTIDFSSDLRQQSASYIPKITHPTDTSNFDPVDPDKLWSDGSEEENISDTLNGWYKNGKHPEHAFYEFTFRRFFDDNGYPYNYPKPIEYEYIHSQGSEQQSDEDDQHTSSDGNNRDLVYV
With B2 the binding [4] was “binds”.
